No constants are given. Whether binding was seen depends on the method and setting. In cells and extracts the contact can be indirect. Some results given as binding are weak or reduced against the parent protein; the word gives no strength.
Molecular target: Cas5-HA (C terminally HA-tagged Cas5) (C. albicans) (UniProt Q5AMH6)
Experiment: co-IP; Cas5-HA immunoprecipitated with anti-HA agarose (Pierce HA-Tag IP/Co-IP kit) from C. albicans lysate; lysis buffer 20 mM Tris pH 7.5, 100 mM KCl, 5 mM MgCl, 20% glycerol; western blot with anti-TAP antibody

The chains behind the UniProt entries cited, without tags or fusion partners.
UniProt Q5AMH6: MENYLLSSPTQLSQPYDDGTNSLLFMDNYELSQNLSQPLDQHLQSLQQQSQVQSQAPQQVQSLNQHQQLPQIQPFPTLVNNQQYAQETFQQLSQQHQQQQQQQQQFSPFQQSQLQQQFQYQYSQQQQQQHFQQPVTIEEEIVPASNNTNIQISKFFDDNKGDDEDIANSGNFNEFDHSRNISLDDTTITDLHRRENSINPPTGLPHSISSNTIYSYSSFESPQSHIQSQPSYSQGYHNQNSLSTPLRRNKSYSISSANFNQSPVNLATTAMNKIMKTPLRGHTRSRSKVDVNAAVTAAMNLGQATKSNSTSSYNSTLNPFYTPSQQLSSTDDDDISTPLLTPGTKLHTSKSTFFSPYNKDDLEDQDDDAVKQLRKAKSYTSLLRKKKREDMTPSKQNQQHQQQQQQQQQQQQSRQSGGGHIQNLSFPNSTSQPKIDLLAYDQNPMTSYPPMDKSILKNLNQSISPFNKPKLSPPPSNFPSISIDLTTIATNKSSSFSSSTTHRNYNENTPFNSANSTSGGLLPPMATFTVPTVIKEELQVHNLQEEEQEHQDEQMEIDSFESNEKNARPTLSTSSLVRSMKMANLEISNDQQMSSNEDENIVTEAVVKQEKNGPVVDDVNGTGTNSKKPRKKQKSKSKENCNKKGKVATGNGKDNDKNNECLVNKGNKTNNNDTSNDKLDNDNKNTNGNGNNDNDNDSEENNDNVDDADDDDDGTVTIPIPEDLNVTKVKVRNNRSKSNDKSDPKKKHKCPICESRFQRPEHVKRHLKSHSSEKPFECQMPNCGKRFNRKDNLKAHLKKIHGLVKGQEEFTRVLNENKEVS
UniProt A0A1D8PCM9: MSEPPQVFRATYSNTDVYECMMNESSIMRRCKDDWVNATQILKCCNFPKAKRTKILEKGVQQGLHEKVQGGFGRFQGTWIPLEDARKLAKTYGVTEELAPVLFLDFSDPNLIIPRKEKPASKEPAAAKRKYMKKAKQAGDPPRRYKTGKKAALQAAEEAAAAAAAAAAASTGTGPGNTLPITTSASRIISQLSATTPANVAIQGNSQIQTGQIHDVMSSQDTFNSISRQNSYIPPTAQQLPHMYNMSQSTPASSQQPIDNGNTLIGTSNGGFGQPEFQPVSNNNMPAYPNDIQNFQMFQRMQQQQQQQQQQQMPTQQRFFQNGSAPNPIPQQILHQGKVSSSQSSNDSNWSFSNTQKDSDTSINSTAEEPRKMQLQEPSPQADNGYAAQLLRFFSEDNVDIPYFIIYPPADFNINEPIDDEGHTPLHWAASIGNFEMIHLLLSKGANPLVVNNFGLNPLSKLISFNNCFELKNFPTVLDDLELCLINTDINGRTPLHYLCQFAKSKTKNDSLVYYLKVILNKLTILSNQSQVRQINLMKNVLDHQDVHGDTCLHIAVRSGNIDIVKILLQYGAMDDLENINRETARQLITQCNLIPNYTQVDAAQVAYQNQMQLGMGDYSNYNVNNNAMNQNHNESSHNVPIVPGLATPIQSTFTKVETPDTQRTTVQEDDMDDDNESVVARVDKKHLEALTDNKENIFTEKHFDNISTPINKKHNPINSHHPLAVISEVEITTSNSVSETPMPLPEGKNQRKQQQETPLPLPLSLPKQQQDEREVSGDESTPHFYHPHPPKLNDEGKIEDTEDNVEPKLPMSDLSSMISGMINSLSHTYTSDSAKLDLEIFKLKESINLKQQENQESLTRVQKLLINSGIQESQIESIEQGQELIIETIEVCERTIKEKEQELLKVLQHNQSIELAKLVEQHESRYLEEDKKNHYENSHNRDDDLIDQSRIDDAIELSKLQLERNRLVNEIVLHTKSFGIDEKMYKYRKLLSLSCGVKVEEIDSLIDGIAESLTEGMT

| Substance | binding |
| --- | --- |
| Swi4-TAP (from UniProt A0A1D8PCM9 1-1019) | binds |
| Swi6-TAP (from UniProt A0A1D8PED2 1-729) | binds |

— article PMC5593949
